The full ranking holds about 33,000 sequences; the median of “E-score (-0.5 to 0.5)” is about -0.0014, and the highest 2% start at about 0.25. Some of the results follow.
Each sequence was assayed against T1, Cad1 (UniProt P24813) (assay: PBM E-score (8-mer binding enrichment) (E-score (-0.5 to 0.5)); higher = stronger / more preferred TF binding). Details: protein concentration: 100 nM; construct: GST-full length.
T1 sequence: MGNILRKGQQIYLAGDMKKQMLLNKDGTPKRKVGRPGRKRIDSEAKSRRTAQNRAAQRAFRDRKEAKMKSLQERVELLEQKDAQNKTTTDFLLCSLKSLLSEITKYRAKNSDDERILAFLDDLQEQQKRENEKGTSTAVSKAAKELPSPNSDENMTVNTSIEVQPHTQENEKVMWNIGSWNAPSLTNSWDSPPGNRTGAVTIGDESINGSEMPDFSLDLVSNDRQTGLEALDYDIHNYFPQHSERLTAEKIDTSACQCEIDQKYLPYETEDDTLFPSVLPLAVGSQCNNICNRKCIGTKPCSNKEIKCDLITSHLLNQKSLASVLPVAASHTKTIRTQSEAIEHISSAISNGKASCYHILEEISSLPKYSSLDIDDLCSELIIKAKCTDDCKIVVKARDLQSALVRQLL
Method in brief: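 Yeast transcription factors, full-length or as DNA-binding domains, were expressed with a GST tag using PURExpress in vitro transcription/translation. At about 100-200 nM they were applied to universal all-10-mer Agilent arrays, double-stranded by primer extension on fresh or once-stripped slides. Fluorescent anti-GST detected bound protein, and masliner normalised the scans. E-scores for ungapped eight-base words, pooled with reverse complements, came from the Universal PBM Analysis Suite.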

| Sequence | PBM E-score |
| --- | --- |
| AGTAACAT | -0.00328 |
| AGCATGAT | -0.0237 |
| GGGATCCC | -0.132 |
| CAGTCTCA | 0.027 |
| ATGCCAGC | -0.159 |
| GATCCTCA | -0.00725 |
| AGGGCACA | -0.116 |
| AGCATTAC | -0.00103 |
| GGGATGAA | 0.047 |
| AAAACTTC | 0.0603 |
| AGTGCTTC | -0.157 |
| GAAGGTGA | -0.149 |
| ACTACTGA | -0.0674 |
| ATAAACCA | -0.0728 |
| ATCGCCTC | 0.0483 |
| ACTGCCGG | 0.0364 |
| AAAGTATC | 0.169 |
| AGGAATAG | 0.0547 |
| CTCGGCCC | -0.0795 |
| ACTCACAG | 0.126 |
| CTCCGATC | -0.0931 |
| TGCCTGAA | -0.0201 |
| AATCTCCG | 0.0886 |
| GAGGCATA | -0.0176 |
| CATTTCAA | 0.174 |

| Sequence | PBM E-score |
| --- | --- |
| GCTGGAAA | 0.145 |
| CCACAGAG | -0.0523 |
| CCAAAACA | -0.111 |
| TCTATGAA | 0.1 |
| ATCCCAGA | -0.0262 |
| ACCTGCCA | -0.0914 |
| GGCTGCAA | -0.0399 |
| TGCTTCAA | 0.00302 |
| ACATTCCA | 0.12 |
| ATAGAGGA | -0.207 |
| AGGCAGTG | 0.0381 |
| ACCTCTCG | -0.24 |
| ATGTAGCG | -0.0465 |
| AATGGATC | 0.00673 |
| GAGATAAA | 0.0996 |
| ACCTCAGA | -0.0991 |
| AGGCCGCC | -0.177 |
| ACCGGCCA | -0.129 |
| GAGATCCC | -0.0668 |
| CTCACAAC | 0.156 |
| ATCCTCGA | 0.219 |
| TAATCGGA | 0.152 |
| CGTTAAGA | 0.0284 |
| TGTGGTAA | 0.147 |
| AGTCACAT | -0.0246 |

| Sequence | PBM E-score |
| --- | --- |
| ATGGTCAC | 0.0209 |
| CGCGAGAG | -0.0112 |
| ACGGAAAA | 0.24 |
| AACCGGAC | 0.0203 |
| CCCATCCC | -0.142 |
| GCGTCGAA | 0.116 |
| CCTGCGAA | -0.0211 |
| CAGCAGAA | 0.0243 |
| CTAACTAG | 0.107 |
| CTACACGA | 0.0435 |
| AAACATCC | 0.0621 |
| ATGGCAAA | -0.0676 |
| AACATGAG | -0.00256 |
| CACACACA | 0.0256 |
| AGGCACAT | -0.0367 |
| CGCATGAA | 0.116 |
| AGAAGAAC | -0.101 |
| AATGTATC | 0.166 |
| TAAAACGA | -0.0435 |
| AATAGAGT | -0.312 |
| CAAGTGAG | -0.223 |
| CAATGTAA | 0.164 |
| ACAACCAG | 0.145 |
| ATGTACCC | -0.107 |
| ATTAATCA | 0.436 |

Part of the list above in another layout:
Sequence	PBM E-score
CAGTCTCA	0.027
ATGCCAGC	-0.159
GATCCTCA	-0.00725
AGGGCACA	-0.116
AGCATTAC	-0.00103
GGGATGAA	0.047
AAAACTTC	0.0603

Remaining list, next part.

| Sequence | PBM E-score |
| --- | --- |
| TCATGACA | 0.301 |
| GAACGACC | -0.245 |
| CCTGAAGA | 0.0275 |
| AAAACCGA | 0.0608 |
| AGCAGGGA | -0.0422 |
| CTCCACAG | -0.197 |
| AATCGAGG | 0.229 |
| AATGTCTG | 0.0901 |
| CGCGATGA | 0.244 |
| TCCCGTCA | -0.0555 |
| GACCACCC | -0.155 |
| TACACGAA | 0.131 |
| ATCCGTTG | 0.0806 |
| ACCTAGTC | -0.203 |
| AGGGCTAT | -0.225 |
| TCACATCA | 0.108 |
| CCTCATGA | 0.0793 |
| ATGGATGA | 0.0287 |
| CAAGAGGG | -0.247 |
| AACGTATG | -0.0601 |
| ACCACCCG | -0.148 |
| AGGAGTTA | -0.0455 |
| TACGGGAA | -0.154 |
| CGGGAGAA | -0.064 |
| ATTTGTCG | 0.147 |

| Sequence | PBM E-score |
| --- | --- |
| ACTATGAC | 0.0514 |
| AGGGATGC | -0.317 |
| AAATTACG | -0.00187 |
| ACGAACTG | -0.0705 |
| AAGCCTTG | 0.00151 |
| ACGTAAGT | -0.102 |
| GACTATGC | 0.0921 |
| CCTATCCA | -0.149 |
| GCCTGGCC | -0.0384 |
| ATACGATA | 0.0741 |
| CCGGAGCC | -0.121 |
| ACCTTGAA | -0.0508 |
| CAGCCCGG | -0.0203 |
| GCGCGTAC | 0.177 |
| AGTCATCC | 0.069 |
| CATAAGGA | -0.0685 |
| TCAAGAGA | 0.00496 |
| ATCGCTCC | -0.0915 |
| CTCCGACA | -0.0623 |
| ACTCTTGG | -0.0149 |
| CCCATCGG | 0.0864 |
| AGGCTCTA | -0.206 |
| AACTGATC | -0.03 |
| ATTATCAA | 0.297 |
| CCGCAACG | 0.0864 |

Already shown: an excerpt of the list.

| Sequence | PBM E-score |
| --- | --- |
| AAAACCGA | 0.0608 |
| AGCAGGGA | -0.0422 |
| CTCCACAG | -0.197 |
| AATCGAGG | 0.229 |

Additional records follow.

| Sequence | PBM E-score |
| --- | --- |
| CCATCCAC | 0.00183 |
| TCATATCA | 0.0259 |
| GTTGGATA | -0.00805 |
| ATAGGGTG | -0.182 |
| ACTAATCA | 0.344 |
| CAATTTCG | -0.0461 |
| ACACCGAG | -0.0203 |
| CCTGGAAG | -0.115 |
| ACTGGCGA | -0.221 |
| ACGACATC | -0.123 |
| CACTACCC | 0.0105 |
| CTGCCGAA | -0.159 |
| AATGGAAG | -0.0397 |
| AAAGAGAG | -0.246 |
| CCCGGAAA | 0.134 |
| ACTAGCGC | 0.0861 |
| CAGGATCG | -0.0584 |
| CCGGTCTC | -0.161 |
| AGCATGCG | 0.193 |
| ACTAGAGA | -0.224 |
| CTATGTGC | -0.0758 |
| CGGGCGAC | -0.302 |
| AGTCGTGA | 0.0708 |
| GTACCGGA | 0.0675 |
| GGGGGTTA | -0.4 |

| Sequence | PBM E-score |
| --- | --- |
| CGCCGTCC | 0.138 |
| CCGGGATA | 0.0494 |
| AGTACTCA | 0.00679 |
| ACAATCCC | 0.0372 |
| AAGTTGGT | 0.252 |
| GCGCGCAA | 0.303 |
| CTACTATA | 0.00732 |
| ACAAGGAA | 0.0729 |
| CAAGTGTA | 0.113 |
| CTAGCACC | -0.0114 |
| ACCTTCCC | -0.143 |
| CGCTGACC | 0.117 |
| AGTTAAGA | -0.0062 |
| AAACGCAG | -0.0302 |
| AGCACTTG | -0.324 |
| GACTGGTA | -0.0461 |
| AAGTTCAG | -0.00226 |
| CGTATTGC | 0.0488 |
| ACGTTGGC | -0.143 |
| GGCGACCC | -0.332 |
| GACCATAC | -0.11 |
| CTTGGACC | -0.311 |
